This note sets out measurements from article PMC11408460 (Cellular and Molecular Life Sciences: CMLS, 2024).

Assay [1] concerns the target HBA1(111–132), 22-amino acid C-terminal fragment of human hemoglobin A (human). The assay is described as follows: SEC-MALS; both purified.
In assay [2] the target is HBA1(120–132), C-terminal 13-mer fragment of HBA1(111–132) (human). Nature of the assay: SEC-MALS; both purified.

These are yes or no findings as the source states them, for the method shown.

With AAHLPAEFTPAVHASLDKFLAS [HBA1(111–132), 22-amino acid C-terminal fragment of human hemoglobin A], the binding result in assay [1] is reported as “no binding (tested: 5 mg/ml)”.

Regarding PAVHASLDKFLAS [HBA1(120–132), C-terminal 13-mer fragment of HBA1(111–132)], in assay [2], the binding result was “no binding (tested: 10 mg/ml)”.
